{"source": "paper PMC6389893", "binders": {"B1": {"name": "TRIM33 RING(C125A/C128A) (protein, UniProt Q9UPN9 1-1127)", "chain": "MAENKGGGEAESGGGGSGSAPVTAGAAGPAAQEAEPPLTAVLVEEEEEEGGRAGAEGGAAGPDDGGVAAASSGSAQAASSPAASVGTGVAGGAVSTPAPAPASAPAPGPSAGPPPGPPASLLDTAAVAQQSLQSRREAEPKLLPCLHSFCLRCLPEPERQLSVPIPGGSNGDIQQVGVIRCPVCRQECRQIDLVDNYFVKDTSEAPSSSDEKSEQVCTSCEDNASAVGFCVECGEWLCKTCIEAHQRVKFTKDHLIRKKEDVSESVGASGQRPVFCPVHKQEQLKLFCETCDRLTCRDCQLLEHKEHRYQFLEEAFQNQKGAIENLLAKLLEKKNYVHFAATQVQNRIKEVNETNKRVEQEIKVAIFTLINEINKKGKSLLQQLENVTKERQMKLLQQQNDITGLSRQVKHVMNFTNWAIASGSSTALLYSKRLITFQLRHILKARCDPVPAANGAIRFHCDPTFWAKNVVNLGNLVIESKPAPGYTPNVVVGQVPPGTNHISKTPGQINLAQLRLQHMQQQVYAQKHQQLQQMRMQQPPAPVPTTTTTTQQHPRQAAPQMLQQQPPRLISVQTMQRGNMNCGAFQAHQMRLAQNAARIPGIPRHSGPQYSMMQPHLQRQHSNPGHAGPFPVVSVHNTTINPTSPTTATMANANRGPTSPSVTAIELIPSVTNPENLPSLPDIPPIQLEDAGSSSLDNLLSRYISGSHLPPQPTSTMNPSPGPSALSPGSSGLSNSHTPVRPPSTSSTGSRGSCGSSGRTAEKTSLSFKSDQVKVKQEPGTEDEICSFSGGVKQEKTEDGRRSACMLSSPESSLTPPLSTNLHLESELDALASLENHVKIEPADMNESCKQSGLSSLVNGKSPIRSLMHRSARIGGDGNNKDDDPNEDWCAVCQNGGDLLCCEKCPKVFHLTCHVPTLLSFPSGDWICTFCRDIGKPEVEYDCDNLQHSKKGKTAQGLSPVDQRKCERLLLYLYCHELSIEFQEPVPASIPNYYKIIKKPMDLSTVKKKLQKKHSQHYQIPDDFVADVRLIFKNCERFNEMMKVVQVYADTQEINLKADSEVAQAGKAVALYFEDKLTEIYSDRTFAPLPEFEQEEDDGEVTEDSDEDFIQPRRKRLKSDERPVHIK"}}, "biological_target": "GST-IN full length (HIV-1)", "assay": "pull-down; GST pull-down of wild-type TRIM33 and its RING and PHD point mutants with IN (Supplementary Fig. 6c); how the TRIM33 proteins were made is not told for this panel", "note": "Results are given in words; binding and its absence hold for the method and conditions named. Binding seen in cells or lysates may run through a third protein. Binding calls can cover weak binding; strength is not graded here.", "data": [{"binder": "B1", "values": [{"measurement": "binding", "value": "binds"}]}]}
